Laboratory results: patent publication US8394795B2, “Pyrazole [3, 4-B] pyridine Raf inhibitors” (Array BioPharma Inc., priority 2008, dated 2013)
pIC50: −log10 of the molar value. Some entries share one result that the patent states for a list of compounds.

Sequences of proteins named here, by UniProt entry; tags and fusion partners are left off.
UniProt P15056, whole entry V600E: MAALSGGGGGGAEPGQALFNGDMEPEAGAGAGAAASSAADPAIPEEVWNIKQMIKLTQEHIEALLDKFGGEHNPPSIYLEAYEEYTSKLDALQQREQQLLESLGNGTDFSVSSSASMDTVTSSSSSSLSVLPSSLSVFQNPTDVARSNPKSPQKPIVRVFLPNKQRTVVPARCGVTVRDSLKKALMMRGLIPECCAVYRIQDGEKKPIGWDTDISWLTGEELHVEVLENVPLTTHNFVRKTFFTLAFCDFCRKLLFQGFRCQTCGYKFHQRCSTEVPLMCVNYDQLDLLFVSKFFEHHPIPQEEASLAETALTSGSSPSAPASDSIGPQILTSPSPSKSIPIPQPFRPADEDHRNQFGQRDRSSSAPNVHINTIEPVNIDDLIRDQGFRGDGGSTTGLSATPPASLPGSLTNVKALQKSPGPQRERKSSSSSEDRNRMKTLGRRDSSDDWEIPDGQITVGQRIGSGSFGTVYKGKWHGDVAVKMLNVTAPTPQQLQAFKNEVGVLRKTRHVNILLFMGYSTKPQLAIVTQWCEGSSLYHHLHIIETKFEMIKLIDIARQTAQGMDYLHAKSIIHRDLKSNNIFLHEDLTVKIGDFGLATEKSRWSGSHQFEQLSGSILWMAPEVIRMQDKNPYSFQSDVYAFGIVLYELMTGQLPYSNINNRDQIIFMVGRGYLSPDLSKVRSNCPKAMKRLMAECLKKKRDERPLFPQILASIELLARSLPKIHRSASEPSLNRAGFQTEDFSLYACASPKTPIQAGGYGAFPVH

Target: T1, V600E full-length B-Raf (Homo sapiens, UniProt P15056, V600E)
T1 construct: 20 nM V600E full-length B-Raf; made in house; host or cells: Sf9 insect cells (baculovirus)
Test: B-Raf IC50 Assay
Assay type: biochemical
Conditions: incorporation of radio labeled phosphate from [γ-33P]ATP into FSBA-modified wild-type MEK; 4 μM ATP, 20 nM V600E full-length B-Raf, 22° C., 60-minute incubation

CCCS(=O)(=O)Nc1cccc(C(=O)Nc2cnc3[nH]nc(Br)c3c2)c1F [Example 106, N-(3-bromo-1H-pyrazolo [3,4-b]pyridin-5-yl)-2-fluoro-3-(propylsulfonamido)benzamide]
pIC50: > 6.00

CCCS(=O)(=O)Nc1ccc(F)c(C(=O)Nc2cnc3[nH]nc(N4CCOCC4)c3c2)c1F [Example 40, 2,6-difluoro-N-(3-morpholino-1H-pyrazolo[3,4-b]pyridin-5-yl)-3-(propylsulfonamido) benzamide]
pIC50: > 6.00

CCS(=O)(=O)Nc1ccc(Cl)c(C(=O)Nc2cnc3[nH]nc(C4CC4)c3c2)c1F [Example 74, 6-chloro-N-(3-cyclopropyl-1H-pyrazolo[3,4-b]pyridin-5-yl)-3-(ethylsulfonamido)-2-fluorobenzamide]
pIC50: > 6.00

CCCS(=O)(=O)Nc1ccc(F)c(C(=O)Nc2cnc3[nH]nc(CC(=O)OC)c3c2)c1F [Example 7, methyl 2-(5-(2,6-difluoro-3-(propylsulfonamido)benzamido)-1H-pyrazolo[3,4-b]pyridin-3-yl)acetate]
pIC50: > 6.00

CCCS(=O)(=O)Nc1ccc(F)c(C(=O)Nc2cnc3[nH]nc(-c4ccc(F)c(F)c4)c3c2)c1F [Example 23, N-(3-(3,4-difluorophenyl)-1H-pyrazolo(3,4-b]pyridin-5-yl)-2,6-difluoro-3-(propylsulfonamido) benzamide]
pIC50: > 6.00

COCCOc1n[nH]c2ncc(NC(=O)c3c(Cl)ccc(NS(=O)(=O)CCCF)c3F)cc12 [Example 91, 6-chloro-2-fluoro-3-(3-fluoropropylsulfonamido)-N-(3-(2-methoxyethoxy)-1H-pyrazolo[3,4-b]pyridin-5-yl)benzamide]
pIC50: > 6.00

CCCS(=O)(=O)Nc1ccc(F)c(C(=O)Nc2cnc3[nH]nc(NC)c3c2)c1F [Example 42, 2,6-difluoro-N-(3-(methylamino)-1H-pyrazolo[3,4-b]pyridin-5-yl)-3-(propylsulfonamido) benzamide]
pIC50: > 6.00

CCCS(=O)(=O)Nc1ccc(F)c(C(=O)Nc2cnc3[nH]nc(OC)c3c2)c1Cl [Example 100, 2-chloro-6-fluoro-N-(3-methoxy-1H-pyrazolo[3,4-b]pyridin-5-yl)-3-(propylsulfonamido)benzamide]
pIC50: > 6.00

CCCS(=O)(=O)Nc1ccc(F)c(C(=O)Nc2cnc3[nH]nc(N(CC)CC)c3c2)c1F [Example 49, N-(3-(diethylamino)-1H-pyrazolo[3,4-b]pyridin-5-yl)-2,6-difluoro-3-(propylsulfonamido)benzamide]
pIC50: > 6.00

CCCOc1n[nH]c2ncc(NC(=O)c3c(F)ccc(NS(=O)(=O)CCC)c3F)cc12 [Example 116, 2,6-difluoro-N-(3-propoxy-1H-pyrazolo[3,4-b]pyridin-5-yl)-3-(propylsulfonamido)benzamide]
pIC50: > 6.00

CCCS(=O)(=O)Nc1ccc(Cl)c(C(=O)Nc2cnc3[nH]nc(OCCOC)c3c2)c1F [Example 92, 6-chloro-2-fluoro-N-(3-(2-methoxyethoxy)-1H-pyrazolo[3,4-b]pyridin-5-yl)-3-(propylsulfonamido)benzamide]
pIC50: > 6.00

COc1n[nH]c2ncc(NC(=O)c3c(F)ccc(NS(=O)(=O)N(C)C)c3F)cc12 [Example 148, 3-(N,N-dimethylsulfamoylamino)-2,6-difluoro-N-(3-methoxy-1H-pyrazolo[3,4-b]pyridin-5-yl)benzamide]
pIC50: > 6.00

COc1n[nH]c2ncc(NC(=O)c3c(F)ccc(NS(=O)(=O)Cc4ccccc4)c3F)cc12 [Example 140, 2,6-difluoro-N-(3-methoxy-1H-pyrazolo[3,4-b]pyridin-5-yl)-3-(phenylmethylsulfonamido)benzamide]
pIC50: > 6.00

CCCS(=O)(=O)Nc1ccc(F)c(C(=O)Nc2cnc3[nH]nc(O[C@@H]4CCOC4)c3c2)c1F [Example 99, (R)-2,6-difluoro-3-(propylsulfonamido)-N-(3-(tetrahydrofuran-3-yloxy)-1H-pyrazolo[3,4-b]pyridin-5-yl)benzamide]
pIC50: > 6.00

COc1n[nH]c2ncc(NC(=O)c3c(Cl)ccc(NS(=O)(=O)CC4CC4)c3F)cc12 [Example 128, 6-chloro-3-(cyclopropylmethyl-sulfonamido)-2-fluoro-N-(3-methoxy-1H-pyrazolo[3,4-b]pyridin-5-yl)benzamide]
pIC50: > 6.00

CCCS(=O)(=O)Nc1ccc(Cl)c(C(=O)Nc2cnc3[nH]nc(Br)c3c2)c1F [Example 108, N-(3-bromo-1H-pyrazolo[3,4-b]pyridin-5-yl)-6-chloro-2-fluoro-3-(propylsulfonamido)benzamide]
pIC50: > 6.00

CCCS(=O)(=O)Nc1ccc(Cl)c(C(=O)Nc2cnc3[nH]nc(OC)c3c2)c1F [Example 57, 6-chloro-2-fluoro-N-(3-methoxy-1H-pyrazolo[3,4-b]pyridin-5-yl)-3-(propylsulfonamido)benzamide]
pIC50: > 6.00

CCCS(=O)(=O)Nc1ccc(Cl)c(C(=O)Nc2cnc3[nH]nc(SC)c3c2)c1F [Example 113, 6-chloro-2-fluoro-N-(3-(methylthio)-1H-pyrazolo[3,4-b]pyridin-5-yl)-3-(propylsulfonamido)benzamide]
pIC50: > 6.00

CCCS(=O)(=O)Nc1cccc(C(=O)Nc2cnc3[nH]nc(C4CC4)c3c2)c1F [Example 44, N-(3-cyclopropyl-1H-pyrazolo[3,4-b]pyridin-5-yl)-2-fluoro-3-(propylsulfonamido)benzamide]
pIC50: > 6.00

CCCS(=O)(=O)Nc1ccc(F)c(C(=O)Nc2cnc3[nH]nc(C)c3c2)c1F [Example 4, 2,6-difluoro-N-(3-methyl-1H-pyrazolo[3,4-b]pyridin-5-yl)-3-(propylsulfonamido)benzamide]
pIC50: > 6.00

CCCNS(=O)(=O)Nc1ccc(F)c(C(=O)Nc2cnc3[nH]nc(OC)c3c2)c1F [Example 96, 2,6-difluoro-N-(3-methoxy-1H-pyrazolo[3,4-b]pyridin-5-yl)-3-(N-propylsulfamoylamino)benzamide]
pIC50: > 6.00

COc1n[nH]c2ncc(NC(=O)c3c(F)ccc(NS(=O)(=O)c4ccco4)c3F)cc12 [Example 134, 2,6-difluoro-3-(furan-2-sulfonamido)-N-(3-methoxy-1H-pyrazolo[3,4-b]pyridin-5-yl)benzamide]
pIC50: > 6.00

CCN(C)S(=O)(=O)Nc1ccc(F)c(C(=O)Nc2cnc3[nH]nc(OC)c3c2)c1F [Example 102, 3-(N-ethyl-N-methylsulfamoylamino)-2,6-difluoro-N-(3-methoxy-1H-pyrazolo[3,4-b]pyridin-5-yl)benzamide]
pIC50: > 6.00

CCCS(=O)(=O)Nc1ccc(Cl)c(C(=O)Nc2cnc3[nH]nc(OC(C)C)c3c2)c1F [Example 125, 6-chloro-2-fluoro-N-(3-isopropoxy-1H-pyrazolo[3,4-b]pyridin-5-yl)-3-(propylsulfonamido) benzamide]
pIC50: > 6.00

CCCS(=O)(=O)Nc1ccc(Cl)c(C(=O)Nc2cnc3[nH]nc(N(C)C)c3c2)c1F [Example 123, 6-chloro-N-(3-(dimethylamino)-1H-pyrazolo[3,4-b]pyridin-5-yl)-2-fluoro-3-(propylsulfonamido) benzamide]
pIC50: > 6.00

CCCS(=O)(=O)Nc1ccc(F)c(C(=O)Nc2cnc3[nH]nc(CCCN(C)C)c3c2)c1F [Example 35, N-(3-(3-(dimethylamino)propyl)-1H-pyrazolo [3,4-b]pyridin-5-yl)-2,6-difluoro-3-(propylsulfonamido) benzamide]
pIC50: > 6.00

CCCS(=O)(=O)Nc1ccc(Cl)c(C(=O)Nc2cnc3[nH]nc(SCC)c3c2)c1F [Example 118, 6-chloro-N-(3-(ethylthio)-1H-pyrazolo[3,4-b]pyridin-5-yl)-2-fluoro-3-(propylsulfonamido) benzamide]
pIC50: > 6.00

CCCS(=O)(=O)Nc1ccc(Cl)c(C(=O)Nc2cnc3[nH]nc(OCC)c3c2)c1F [Example 77, 6-chloro-N-(3-ethoxy-1H-pyrazolo[3,4-b]pyridin-5-yl)-2-fluoro-3-(propylsulfonamido)benzamide]
pIC50: > 6.00

CCCS(=O)(=O)Nc1ccc(F)c(C(=O)Nc2cnc3[nH]nc(C(C)=O)c3c2)c1F [Example 115, N-(3-acetyl-1H-pyrazolo[3,4-b]pyridin-5-yl)-2,6-difluoro-3-(propylsulfonamido)benzamide]
pIC50: > 6.00

CCCS(=O)(=O)Nc1ccc(F)c(C(=O)Nc2cnc3[nH]nc(-c4cccc(OCC(O)CO)c4)c3c2)c1F (stereo not drawn) [Example 17, N-(3-(3-(2,3-dihydroxypropoxy)phenyl)-1H-pyrazolo[3,4-b]pyridin-5-yl)-2,6-difluoro-3-(propylsulfonamido)benzamide]
pIC50: > 6.00

CCCS(=O)(=O)Nc1ccc(F)c(C(=O)Nc2cnc3[nH]nc(C4CCC4)c3c2)c1F [Example 12, N-(3-cyclobutyl-1H-pyrazolo[3,4-b]pyridin-5-yl)-2,6-difluoro-3-(propylsulfonamido)benzamide]
pIC50: > 6.00

Cc1n[nH]c2ncc(NC(=O)c3c(F)ccc(NS(=O)(=O)CCCF)c3F)cc12 [Example 63, 2,6-difluoro-3-(3-fluoropropylsulfonamido)-N-(3-methyl-1H-pyrazolo[3,4-b]pyridin-5-yl)benzamide]
pIC50: > 6.00

COc1n[nH]c2ncc(NC(=O)c3c(F)ccc(NS(=O)(=O)c4ccccc4F)c3F)cc12 [Example 129, 2,6-difluoro-3-(2-fluorophenylsulfonamido)-N-(3-methoxy-1H-pyrazolo [3,4-b]pyridin-5-yl)benzamide]
pIC50: > 6.00

CCCS(=O)(=O)Nc1ccc(F)c(C(=O)Nc2cnc3[nH]nc(I)c3c2)c1F [Example 22, 2,6-difluoro-N-(3-iodo-1H-pyrazolo[3,4-b]pyridin-5-yl)-3-(propylsulfonamido) benzamide]
pIC50: > 6.00

CCCS(=O)(=O)Nc1ccc(F)c(C(=O)Nc2cnc3[nH]nc(-c4ccc(OCCN(C)C)cc4)c3c2)c1F [Example 33, N-(3-(4-(2-(dimethylamino)ethoxy)phenyl)-1H-pyrazolo[3,4-b]pyridin-5-yl)-2,6-difluoro-3-(propylsulfonamido) benzamide]
pIC50: > 6.00

CCCS(=O)(=O)Nc1ccc(F)c(C(=O)Nc2cnc3[nH]nc(-c4cccc(F)c4)c3c2)c1F [Example 26, 2,6-difluoro-N-(3-(3-fluorophenyl)-1H-pyrazolo[3,4-b]pyridin-5-yl)-3-(propylsulfonamido) benzamide]
pIC50: > 6.00
